Experimental findings from article PMC1790702, “Non-Metabolic Membrane Tubulation and Permeability Induced by Bioactive Peptides” (PLoS ONE, 2007) are described below.

This data set is described as follows: Small angle X-ray scattering of multilamellar vesicles, electron density profiles. Particulars: PC/PG (9/1) MLVs, P/L 1/20 (w/w), 20°C. The data set is classed as physicochemical. The protocol:
Briefly, samples for SAXS examination were prepared by dissolving dry lipids in chloroform/methanol (2/1, vol/vol) and mixing to obtain the indicated proportions. The solvent was subsequently evaporated under a stream of oxygen-free dry nitrogen at 45°C and traces of solvent removed by a storage under high vacuum for 2 days. In order to obtain the Multiple Lamellar Vesicles (MLVs) the dry lipids were hydrated with an equal weight of buffer (5 mM HEPES pH 7.4). The aqueous lipid dispersion was thoroughly stirred to obtain a homogeneous dispersion, sealed under argon and kept until examination at 4°C. For X-ray measurements, lipid samples (∼20 µl) were deposited between two thin mica windows and mounted on a programmable thermal stage (Linkam, UK). The temperature was monitored by a thermocouple (Quad Service, Poissy, France) inserted directly into the lipid dispersion. Samples were exposed for 30 seconds to the beam (1.5 Å wavelength). The SAXS quadrant detector response was corrected for the uneven channel response using a static radioactive […] and S was calibrated for d-spacing using hydrated rat tail collagen. Information on the setup, calibration, and facilities are available on the station web site (http://www.srs.dl.ac.uk/ncd/station82/description.html).
The electron density profiles of lipid bilayers were obtained by Fourier synthesis of x-ray diffraction patterns. […]

For “RPKPQQFFGLM-NH2 [SP, Substance P, neuromodulator, primary amphipathic peptide, free N-terminal amino group, reference compound]”, the “Effect on lamellar phase organisation (Ld1/Ld2 heterogeneity, non lamellar phase)” value is “weak diffraction corresponding possibly to a non lamellar phase”.

For “RRRRRRRRR-NH2 [R9, Polyarginine, cell-penetrating peptide, nine arginines, free N-terminal amino group, reference compound]”, the “Effect on lamellar phase organisation (Ld1/Ld2 heterogeneity, non lamellar phase)” value is “inhibited the membrane heterogeneity in favour of a unique liquid disordered phase”.
